The values that follow come from paper PMC6026704.

In the test the target is T1, 6xHis-SIKE-FL (pET15b, N-terminal 6xHis tag) (human) (UniProt Q9BRV8).
T1 sequence: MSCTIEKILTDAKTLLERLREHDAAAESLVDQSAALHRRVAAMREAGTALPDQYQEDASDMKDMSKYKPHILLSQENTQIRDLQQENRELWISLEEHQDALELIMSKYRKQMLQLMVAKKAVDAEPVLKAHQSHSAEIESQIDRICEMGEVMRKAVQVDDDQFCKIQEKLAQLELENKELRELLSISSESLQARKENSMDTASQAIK
The experiment in a line: pull-down; in vitro precipitation (IVP): 6xHis-tagged SIKE (8 uM) pre-incubated with the partner (4-11.2 uM; molar ratios 1:0.5, 1:1, 1:1.4) in 50 mM NaH2PO4 pH 8, 0.3 M NaCl at 4 °C, precipitated with Ni-NTA agarose at RT, washed with 50 mM imidazole, eluted with 250 mM imidazole; SDS-PAGE of bound and unbound samples; both purified.

Results are given in words; binding and its absence hold for the method and conditions named. Sequences can lack the tags named with a protein.

Consider “lysozyme (from UniProt P00698 19-147) (enzyme)”, for which the binding result is on record as “no binding (tested: 4–11.2 μM lysozyme with 8 μM SIKE)”.
